Results as given in publication PMC11130202.
No constants are given. Whether binding was seen depends on the method and setting. Some binding calls cover weakened binding; strength is not graded here.

Biological target: Spa2(1-535) (S. cerevisiae (budding yeast)) (UniProt P23201)
Assay: SPR; Biacore T200, Spa2 variant immobilised on CM5 by amine coupling, the same variant flowed over at 0.15625-20 μM; room temperature; 20 mM HEPES, 50 mM NaCl pH 7.4; bivalent analyte model; for Spa2(1-535) and Spa2(281-535) association between dimers; both purified

Substance: Spa2(1-535) (from UniProt P23201 1-535) (domain or fragment)
- binding: binds weakly
